# Some of the results follow. Further columns of the screen follow, without active or inactive calls. The list favours compounds with an active or inconclusive main result. Potencies come from curve fits of mixed quality, noted in brackets.
# Assay: qHTS Assay to Find Inhibitors of Chronic Active B-Cell Receptor Signaling
# Conditions: ABC-DLBCL IkBa-CBG/CBR reporter, luminescence ratio (green luciferase fused to IkBa over red control in TMD8 lymphoma cells), 4 h
# Method in brief: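 Cell line TMD8 (human ABC DLBCL), stably expressing tet-inducible CBG68-IkBa fusion and CBR; IMDM/0.5% FBS; cpd up to 46 uM; dox induction, 4 h, 37C/5% CO2; dual luminescence; green/red ratio; MG132 control.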
# [1] = measured here: CBR red luminescence, cell number
# [2] = measured here: IkBa-CBG green luminescence
SMILES,AC50 [1],AC50 [2]
COc1ccccc1C(=O)NCC(=O)N1CCN(S(=O)(=O)c2ccccc2C(F)(F)F)CC1,"29.1 µM [rising, single point]",
CCc1cccc(CC)c1N1C(=O)c2cc(N3CCOCC3)c([N+](=O)[O-])cc2C1=O,"6.51 µM [rising, partial curve]",
CC(=O)N1CCN(CC(=O)Nc2ccccc2C(=O)Nc2ccccc2)CC1,"4.11 µM [rising, full curve, poor fit]",
Cc1cc(C)c(S(=O)(=O)N2CCC3(CC2)OCCN3S(=O)(=O)c2cccs2)c(C)c1,"32.6 µM [falling, single point]",
COC(=O)c1cccc(N2C(=O)C(Cl)=C(N3CCOCC3)C2=O)c1,"35.5 µM [falling, single point]",
COc1ccc(NC(=O)CSc2nnc(CNC(=O)c3cccs3)o2)c(OC)c1,"11.2 µM [rising, partial curve, poor fit]",
Clc1ccc(/C=N/Nc2nnc(Cl)c3ccccc23)cc1,"0.291 µM [falling, full curve, poor fit]",
COc1ccc(NS(=O)(=O)c2ccc(N3CCCC3=O)cc2)cn1,"6.31 µM [falling, single point]",
COc1ccc(Cn2nc(C(=O)O)c3ccccc3c2=O)cc1F,"0.355 µM [rising, full curve, poor fit]",
O=C(/C=C/c1c[nH]c2ccccc12)c1ccccc1,"8.2 µM [falling, partial curve]",
COc1cc2ccccc2cc1C(=O)Nc1nccs1,"8.91 µM [falling, partial curve, poor fit]","1.58 µM [rising, partial curve, poor fit]"
Cc1ccc(C)c(NC(=O)CN(C)S(=O)(=O)c2ccc(F)cc2)c1,"29.1 µM [rising, single point]",
Cc1ccccc1-n1c(SC/C(O)=C(\C#N)c2nc3ccccc3[nH]2)nnc1-c1ccncc1,"6.31 µM [falling, partial curve, poor fit]",
Clc1ccc(-c2nnc3sc(Cc4cccs4)nn23)cc1,"14.1 µM [falling, partial curve]",
CCCCCCCN1C(N(C)C)=NC[C@@H]1Cc1ccccc1,"23.1 µM [falling, single point]",
COc1cccc(-n2cnc3cccc(N)c32)c1,"29.1 µM [falling, single point]",
CCOC(=O)c1c(N)sn(-c2ccccc2C)c1=S,"14.1 µM [rising, partial curve, poor fit]",
COc1ccc(-c2[nH]ncc2CNC(C)c2ccccc2Cl)cc1F (configuration not stated),"22.4 µM [falling, single point]",
CN(C)/C=N/c1sc2c(c1C#N)CCC2,"35.5 µM [rising, single point]",
CC(=O)c1ccc(NC(=O)CSCC(=O)Nc2ccc3ccccc3c2)cc1,"5.17 µM [falling, partial curve, poor fit]",

SMILES,AC50 [1],AC50 [2]
O=C(Nc1cccc(S(=O)(=O)N2CCCCCC2)c1)c1cncc(Br)c1,"16.4 µM [falling, partial curve]",
CCS(=O)(=O)Nc1cccc(-c2nc3cccnc3s2)c1,"35.5 µM [falling, single point]",
Cc1cccc(OCc2nnc(SCc3cc(=O)[nH]c4ccccc34)n2-c2ccccc2)c1,"18.4 µM [falling, single point]",
CC(=O)c1cc(-c2ccccc2)n(CC(=O)Nc2ccc(C)c(C)c2)c1C,"18.4 µM [rising, partial curve, poor fit]",
Cc1nn(-c2ccccc2)c(Cl)c1/C=N/Nc1ccc(Cl)c(C(=O)O)c1,"16.4 µM [falling, single point]",
N=C1C(c2nc3ccccc3c(=O)[nH]2)=C(O)CN1c1ccccc1,"2.91 µM [rising, partial curve]",
CC(=O)Nc1ccc(S(=O)(=O)Nc2nccc(/C=C/c3ccccc3F)n2)cc1,"0.501 µM [rising, full curve, poor fit]",
COc1cc(C2Nc3cc(Cl)c(S(N)(=O)=O)cc3S(=O)(=O)N2)cc(OC)c1OC (configuration not stated),"35.5 µM [falling, single point]",
CC1=CC2=NC(=O)CC(C)(C(=O)N(CC(=O)NC3CCCC3)c3cc(C)cc(C)c3)N2C=C1 (configuration not stated),"0.562 µM [rising, full curve, poor fit]",
S=C(NCCCc1ccccc1)NC1CCCCC1,"5.62 µM [rising, full curve, poor fit]",
Cn1c(N)c(C(=O)/C=C/c2ccccc2)c(=O)[nH]c1=O,"3.98 µM [falling, full curve]",
Cc1cccc(OCc2nnc(SCC(=O)Nc3ccc(C)c(C)c3)o2)c1,"7.31 µM [rising, partial curve, poor fit]",
O=C(O)c1cccc(-c2ccc(/C=N/Nc3ccc([N+](=O)[O-])cc3)o2)c1,"0.562 µM [rising, full curve]",
Cc1ccc(OCC(=O)n2nc(C)cc2C)c(Br)c1,"23.1 µM [rising, single point]",
CCOc1ccccc1NC(=O)CC1Nc2cc(C)c(C)cc2NC1=O (configuration not stated),"2.31 µM [falling, partial curve, poor fit]",
CCN(CC)C(=O)Cn1cc(C(=O)C(=O)N2CCN(c3ccccc3)CC2)c2ccccc21,"35.5 µM [falling, single point]",
O=C(NCC(c1ccco1)S(=O)(=O)c1cccs1)c1ccc(F)c(F)c1 (configuration not stated),"6.31 µM [rising, single point]",
NNC(=O)c1[nH]c2ccccc2c1-c1ccccc1,"0.708 µM [rising, partial curve, poor fit]","0.158 µM [falling, full curve, poor fit]"
CC(=O)N(C)c1ccc(NC(=O)c2ccc([N+](=O)[O-])cc2Cl)cc1,"16.4 µM [rising, partial curve]",
COc1ccc(CNCc2ccc3ccccc3c2)c(OC)c1,"12.6 µM [falling, single point]",

# Among those listed so far, 2 contain a furan ring, fused or not:
SMILES,AC50 [1],AC50 [2]
O=C(O)c1cccc(-c2ccc(/C=N/Nc3ccc([N+](=O)[O-])cc3)o2)c1,"0.562 µM [rising, full curve]",
O=C(NCC(c1ccco1)S(=O)(=O)c1cccs1)c1ccc(F)c(F)c1 (configuration not stated),"6.31 µM [rising, single point]",

# Reference: PubChem BioAssay AID493014 (National Center for Advancing Translational Sciences (NCATS), 2011)
